Source: article PMC8799735
These are yes or no findings as the source states them, for the method shown. In cells and extracts the contact can be indirect. Some results given as binding are weak or reduced against the parent protein; the word gives no strength.

Chains of the proteins cited; added tags and fusions are not shown.
UniProt Q00266: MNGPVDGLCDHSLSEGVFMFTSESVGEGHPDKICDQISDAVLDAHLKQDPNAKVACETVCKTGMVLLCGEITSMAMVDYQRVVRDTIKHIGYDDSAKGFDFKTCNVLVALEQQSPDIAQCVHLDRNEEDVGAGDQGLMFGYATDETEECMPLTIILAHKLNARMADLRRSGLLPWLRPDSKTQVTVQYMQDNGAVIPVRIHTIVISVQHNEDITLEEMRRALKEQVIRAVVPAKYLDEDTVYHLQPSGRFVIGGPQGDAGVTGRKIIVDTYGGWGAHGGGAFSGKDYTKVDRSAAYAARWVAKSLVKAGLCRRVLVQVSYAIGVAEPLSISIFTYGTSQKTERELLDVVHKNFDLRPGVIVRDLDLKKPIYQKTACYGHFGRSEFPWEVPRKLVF

Target: Methionine adenosyltransferase α1 (MATα1), endogenous human (human (endogenous in human hepatocytes and liver)) (UniProt Q00266)
Assay: co-IP; human normal liver lysates; IP with anti-MATα1 antibody, western blot against CPT1α, MCAD and SDHα

B1: MCAD, endogenous human (protein, UniProt P11310 26-421)
chain: KANRQREPGLGFSFEFTEQQKEFQATARKFAREEIIPVAAEYDKTGEYPVPLIRRAWELGLMNTHIPENCGGLGLGTFDACLISEELAYGCTGVQTAIEGNSLGQMPIIIAGNDQQKKKYLGRMTEEPLMCAYCVTEPGAGSDVAGIKTKAEKKGDEYIINGQKMWITNGGKANWYFLLARSDPDPKAPANKAFTGFIVEADTPGIQIGRKELNMGQRCSDTRGIVFEDVKVPKENVLIGDGAGFKVAMGAFDKTRPVVAAGAVGLAQRALDEATKYALERKTFGKLLVEHQAISFMLAEMAMKVELARMSYQRAAWEVDSGRRNTYYASIAKAFAGDIANQLATDAVQILGGNGFNTEYPVEKLMRDAKIYQIYEGTSQIQRLIVAREHIDKYKN
binding: binds
